Results are given in words; binding and its absence hold for the method and conditions named. Binding seen in cells or lysates may run through a third protein. Some results given as binding are weak or reduced against the parent protein; the word gives no strength.
What was measured:
[1] = biological target: MUC16^c57-114-pFUSE-hIgG1-Fc2 fusion protein (human); test: co-immunoprecipitation of purified proteins on Protein A/G beads, immunoblot
[2] = biological target: MUC16^c57-114-pFUSE-hIgG1-Fc2 fusion protein (human); test: co-precipitation on preblocked protein A/G PLUS agarose beads (1 hr at 4 °C), western blot with anti-DDK clone 4C5
[3] = biological target: MUC16^c57-114-pFUSE-hIgG1-Fc2 fusion protein (human); test: co-immunoprecipitation on Protein A/G PLUS agarose beads (1 hr at 4 °C) through the Fc of MUC16 pFUSE, blot Poly-anti-LGALS3

Amino acid sequences for entries named in this document (tags omitted).
UniProt P17931: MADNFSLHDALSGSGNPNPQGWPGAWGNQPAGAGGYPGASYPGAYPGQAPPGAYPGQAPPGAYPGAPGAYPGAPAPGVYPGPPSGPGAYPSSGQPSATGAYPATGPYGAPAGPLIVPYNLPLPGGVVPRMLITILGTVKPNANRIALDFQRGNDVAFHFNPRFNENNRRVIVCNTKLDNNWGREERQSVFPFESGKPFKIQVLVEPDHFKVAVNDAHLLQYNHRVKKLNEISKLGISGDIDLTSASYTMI

- binding [1]: binds
- binding [2]: binds
- binding [3]: binds
Substance: LGALS3Myc-DDK (from UniProt P17931 1-250)
